Test results as given in the supplement of paper PMC3334620.
Over roughly 33,000 sequences, “E-score (-0.5 to 0.5)” has its median near -0.0059; the highest 2% begin near 0.26. Some of the results follow.

Target: T1, Cin5 (UniProt P40917)
T1 sequence: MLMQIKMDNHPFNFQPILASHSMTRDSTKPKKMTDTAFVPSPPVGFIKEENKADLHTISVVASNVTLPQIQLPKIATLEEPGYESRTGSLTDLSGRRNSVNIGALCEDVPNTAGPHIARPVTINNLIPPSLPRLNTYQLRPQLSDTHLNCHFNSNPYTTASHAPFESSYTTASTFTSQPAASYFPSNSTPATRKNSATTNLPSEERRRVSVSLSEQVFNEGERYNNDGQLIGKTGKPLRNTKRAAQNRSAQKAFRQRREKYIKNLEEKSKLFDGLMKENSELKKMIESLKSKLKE
Test: PBM E-score (8-mer binding enrichment) (E-score (-0.5 to 0.5)); higher = stronger / more preferred TF binding
Conditions: protein concentration: 100 nM; construct: GST-full length
Procedure, shortened: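 GST-tagged yeast TFs (full-length or DNA-binding domain) were made by PURExpress in vitro transcription/translation and applied at about 100-200 nM to universal all-10-mer Agilent arrays. The arrays were made double-stranded by primer extension, on fresh or once-stripped slides. Bound protein was detected with fluorescent anti-GST, and scans were normalised with masliner. Each ungapped eight-base word, pooled with its reverse complement, received an E-score (modified Wilcoxon-Mann-Whitney statistic) from the Universal PBM Analysis Suite.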

Sequence | PBM E-score
AACTTGCT | 0.0273
ACCTGGAG | -0.0507
TACTGCAA | -0.0141
TACAGTGA | 0.0759
AGCAAGGC | -0.0671
CCAATCGC | 0.106
TCCAGCCA | -0.285
ACCCTTGG | -0.261
TGCAGGCA | -0.164
AAATGCAT | 0.141
ATGACAGG | -0.11
AGATGCTA | -0.0608
ACACGTGG | -0.0534
CTGTCGGA | -0.0806
GGCATAAC | 0.079
AACATGGG | 0.21
ACAAGTCA | -0.155
CCGTCTCG | 0.129
GTGCCGGA | -0.112
CTAGAGGC | -0.13
ATCACGGC | 0.102
CGCTTTTA | 0.122
GTTCCTGA | -0.0504
AGTGACGC | -0.0619
AATATGAT | 0.297

Sequence | PBM E-score
ACGATCGA | 0.117
AGTGCAGC | -0.0791
GCTTAACC | -0.0575
AACCACTA | -0.02
GGACGGGA | -0.136
GAGTAAGA | -0.00658
GACGATAC | -0.0571
TCATAGAA | 0.0971
GAAAGTAC | 0.121
CCACATAC | 0.17
ACACTTGA | -0.0609
AGAGCCCC | -0.248
ATAGAAGA | -0.164
GACCAACA | 0.209
ACATAGGT | 0.0354
GCATCATA | 0.0947
ATCACGCC | 0.00262
CCTACGCC | -0.167
AGAGCGAG | -0.119
ACACACCA | 0.244
GTAGACGA | -0.0708
GATTACGC | 0.301
ACCCGGGG | -0.194
TAGTGGGA | -0.101
CCGAGCCA | -0.13

3 records picked at random from the list so far, as already listed:
Sequence | PBM E-score
GGACGGGA | -0.136
CCGAGCCA | -0.13
ACACACCA | 0.244

Later entries.

Sequence | PBM E-score
TCAGGAAA | -0.0828
ATATTGGA | 0.144
AAGTGATC | -0.019
CTCGGTCA | -0.0681
GCAAATGA | -0.0014
AATTTGCT | 0.103
CAAATGCA | -0.0191
TAGTATGA | 0.232
CGAAAGAG | -0.0699
AGACAATA | 0.279
ACCGCTAA | 0.0554
CATTATCA | 0.206
AGCGAAAG | 0.0415
AATTTAAT | 0.192
GCGAGAGC | -0.0714
AGCCTCTG | -0.283
AACTAAGA | 0.197
GATCTAGA | 0.0166
ACATCCAT | 0.0406
CAGGTGTC | -0.0508
CCCAAAGA | -0.0454
GAAAGCGA | 0.172
AACTGCTA | 0.0485
TACACGCA | -0.0443
TAAGCCAA | 0.227

Sequence | PBM E-score
ACACAATA | 0.213
GACAGTGA | -0.019
AGAATGTC | 0.0183
TACGGACA | -0.042
ATCTTGTA | 0.0315
ACCCAGAT | -0.111
ATAAGTCC | -0.0382
GACGTGAC | -0.0315
CGGACGTC | 0.0418
GAACCACA | 0.188
CGCCATAA | -0.0576
GAGAACAC | 0.047
TCGAAGCA | -0.183
CCTGTTCC | -0.0916
ACGGGATG | 0.0643
CGTCGCAC | -0.115
CGGTACGC | -0.103
GGGCAGTA | 0.0882
GGGTCACA | -0.19
ATGGCATC | 0.155
GGAGCGAA | -0.107
TATTAAGA | -0.0813
ATCTATTC | 0.118
GTATTTGA | 0.118
AGATTTCA | 0.127

Sequence | PBM E-score
ATGACTCA | 0.142
CTTCGAAA | -0.0963
AAGTGAGG | -0.0642
CGGTAACC | -0.15
AGTGGCAC | -0.127
AACAGTCA | -0.041
ACAGTCAT | -0.0745
ACCGCTCC | -0.103
ATGAAGAG | 0.0835
GTTCAAAC | 0.0903
TGGTAGAA | -0.0897
TAAAAGAA | 0.0997
CCCTACCG | -0.099
CATACTGC | 0.0225
CAGGCGGG | -0.0938
CAAGAATA | 0.198
ATCTACGC | 0.233
ATGGAAGG | -0.311
GATCCGTA | -0.0139
CCTTGAGC | -0.155
CTTCGATC | 0.108
TGCACACA | -0.104
CACAACGG | -0.189
CATGGCCG | 0.121
GGAGAGAA | -0.0302

Sequence | PBM E-score
AAACAGGC | -0.18
AAGAACAA | 0.197
ATGGTACC | -0.129
GAACCTGC | 0.0368
AAGCCGTC | 0.0199
ACTGTCAT | 0.0864
AGATTTAC | 0.173
CACGCCAG | -0.198
AGACTAAA | -0.00675
CTTTACCA | 0.0101
CCGTGCCG | -0.0664
ATCCGAGC | 0.00034
CCACGAAG | -0.254
CGTACAAA | 0.042
AGAATGTG | 0.0226
CCTGCCCG | -0.0402
GTGAGATA | 0.164
GGTGTTTA | -0.00352
GTTCGGGA | 0.106
CCGAGAGG | -0.229
CAGCCTCG | -0.0103
GAGCAAGA | -0.0376
ATTCCGTG | 0.139
ACTATCTA | 0.148
CAGAAGAG | -0.115

Sequence | PBM E-score
CCGTCGCG | -0.14
AGGAAGAT | 0.0519
GAGAAGAC | -0.0329
AAATTTGT | 0.137
GCTGGCAA | 0.0752
ATTAGTGC | 0.226
TCAGGCGA | -0.06
GAACAATA | 0.229
CACAGCGG | -0.134
AATAGGGA | 0.0188
ATGCCAAC | 0.0879
CAACGATA | 0.0323
AAATCTAG | -0.0474
GCGACTGA | -0.12
GTGTTAGA | 0.0639
AGGAGTCG | -0.0987
CAGCACAG | 0.103
AGATCCGC | 0.0508
ATTATAAC | 0.212
CTGGGCCA | -0.366
CTCACGCA | 0.274
CCTGGATC | -0.163

Quoted from the listing:
CAGCACAG – PBM E-score: 0.103
CCGTCGCG – PBM E-score: -0.14
TCAGGCGA – PBM E-score: -0.06
AGGAGTCG – PBM E-score: -0.0987
GCTGGCAA – PBM E-score: 0.0752
ATGCCAAC – PBM E-score: 0.0879
